The experiment concerns the target His6-p38 (UniProt Q16539). Description: pull-down; 4 μg purified His6-p38 on Ni2+-NTA beads, blocked with 5% dry milk; 20 μl in vitro translated 35S-MEF2C incubated with or without SUMO reaction mixture added, 1 hr at RT; SDS-PAGE and autoradiography; only the target purified.

By UniProt entry, the sequences of proteins in these tests, tags left out.
UniProt Q16539: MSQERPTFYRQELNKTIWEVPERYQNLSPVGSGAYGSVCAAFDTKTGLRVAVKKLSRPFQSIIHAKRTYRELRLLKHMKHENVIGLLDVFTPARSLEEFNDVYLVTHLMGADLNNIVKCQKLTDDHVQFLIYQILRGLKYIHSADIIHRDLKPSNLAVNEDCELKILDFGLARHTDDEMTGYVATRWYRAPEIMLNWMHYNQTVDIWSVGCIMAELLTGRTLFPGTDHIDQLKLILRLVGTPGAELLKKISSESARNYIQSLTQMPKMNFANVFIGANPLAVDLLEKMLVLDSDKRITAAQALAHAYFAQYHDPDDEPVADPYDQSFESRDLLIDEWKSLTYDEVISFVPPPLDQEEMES

The values below come from PMC1386686.

No constants are given. Whether binding was seen depends on the method and setting. In cells and extracts the contact can be indirect. Some entries that bind do so weakly or less than the wild type.

For the substance “In vitro translated 35S-labeled MEF2C (from UniProt Q06413 1-473)”, the binding result was “binds”.
